No constants are given. Whether binding was seen depends on the method and setting. Some entries that bind do so weakly or less than the wild type. For some assays here: Sequences can lack the tags named with a protein.
Tests used:
[1] = molecular target: T1, FLAG-tagged IL-4Rα-gp130 chimeric receptor; test: Western blot of lysates of transfected COS cells after SDS-PAGE, probed with mAb 1D9
T1 sequence: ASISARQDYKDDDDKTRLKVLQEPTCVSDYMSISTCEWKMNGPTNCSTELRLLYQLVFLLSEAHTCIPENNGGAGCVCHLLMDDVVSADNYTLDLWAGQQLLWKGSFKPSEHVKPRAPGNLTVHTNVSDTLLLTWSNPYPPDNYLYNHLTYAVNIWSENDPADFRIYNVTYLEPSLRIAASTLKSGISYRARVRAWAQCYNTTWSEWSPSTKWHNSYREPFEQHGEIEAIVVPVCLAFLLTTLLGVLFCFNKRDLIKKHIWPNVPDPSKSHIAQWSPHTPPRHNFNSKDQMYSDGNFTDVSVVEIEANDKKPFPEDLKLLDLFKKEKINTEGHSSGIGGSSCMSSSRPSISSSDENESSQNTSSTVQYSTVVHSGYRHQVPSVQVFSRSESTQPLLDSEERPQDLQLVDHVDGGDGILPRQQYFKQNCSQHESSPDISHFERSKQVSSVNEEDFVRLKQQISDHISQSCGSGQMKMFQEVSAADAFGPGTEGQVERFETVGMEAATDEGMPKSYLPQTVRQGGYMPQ

[2] = molecular target: T2, human IL-13Rα1 (human) (UniProt P78552); test: Western blot
T2 sequence: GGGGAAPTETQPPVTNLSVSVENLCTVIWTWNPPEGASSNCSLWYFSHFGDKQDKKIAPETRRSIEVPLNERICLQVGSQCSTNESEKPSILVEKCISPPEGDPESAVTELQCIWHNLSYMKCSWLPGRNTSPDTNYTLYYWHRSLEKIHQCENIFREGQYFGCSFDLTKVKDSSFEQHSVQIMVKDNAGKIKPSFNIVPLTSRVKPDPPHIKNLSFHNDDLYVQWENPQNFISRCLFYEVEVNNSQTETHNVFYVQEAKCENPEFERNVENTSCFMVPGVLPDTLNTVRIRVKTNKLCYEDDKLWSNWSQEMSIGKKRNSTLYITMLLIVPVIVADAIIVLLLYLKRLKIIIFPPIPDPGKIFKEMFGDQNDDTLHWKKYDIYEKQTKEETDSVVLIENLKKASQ

B1: murine monoclonal antibody 1D9 (antibody, IgG1, V domains shown)
VH: EVKLVESGGGLVKPGGSLKLSCAASGFTFSGYGMSWVRQTPEKRLEWVATISGLGGYTYYPDSVKGRFTISRDNAKNTLYLQMSSLRSDDTAFYYCARRFYGDYVGAMDYWGQGTSVTVSS
VL: DILMTQAAFSNPVTLGTSASISCRSSKSLLHSNGITYLYWYLQKPGQSPQLLIYQMSNLASGVPDRFSCSGSGTDFTLSISRVEAEDVGFYYCAQNLELPFTFGSGTKLEIE
With B1 the binding [1] was “no binding” and the binding [2] was “binds”.

— US20050058645A1
